This is an account of results in article doi:10.1101/2023.12.12.570754.

The chains behind the UniProt entries cited, without tags or fusion partners.
UniProt P27641: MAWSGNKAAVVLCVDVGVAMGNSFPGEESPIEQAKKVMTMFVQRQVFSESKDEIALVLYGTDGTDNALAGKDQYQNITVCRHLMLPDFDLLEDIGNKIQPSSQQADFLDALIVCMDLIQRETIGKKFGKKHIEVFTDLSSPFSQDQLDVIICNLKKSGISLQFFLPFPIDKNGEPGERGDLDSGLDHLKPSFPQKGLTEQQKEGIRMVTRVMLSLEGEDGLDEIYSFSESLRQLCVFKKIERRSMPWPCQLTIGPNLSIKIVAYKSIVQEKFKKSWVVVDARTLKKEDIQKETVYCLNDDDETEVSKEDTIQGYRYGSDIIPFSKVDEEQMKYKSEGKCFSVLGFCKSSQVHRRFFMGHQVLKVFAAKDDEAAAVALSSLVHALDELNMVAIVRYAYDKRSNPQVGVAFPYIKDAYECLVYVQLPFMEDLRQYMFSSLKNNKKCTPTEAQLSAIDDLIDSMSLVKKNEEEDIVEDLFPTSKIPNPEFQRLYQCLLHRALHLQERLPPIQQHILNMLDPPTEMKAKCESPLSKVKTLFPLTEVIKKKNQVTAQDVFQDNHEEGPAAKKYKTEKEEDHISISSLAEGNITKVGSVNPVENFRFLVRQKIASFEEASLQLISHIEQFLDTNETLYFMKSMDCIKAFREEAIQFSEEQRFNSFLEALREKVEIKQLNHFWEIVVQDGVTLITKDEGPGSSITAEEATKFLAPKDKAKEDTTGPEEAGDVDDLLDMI
UniProt P23475: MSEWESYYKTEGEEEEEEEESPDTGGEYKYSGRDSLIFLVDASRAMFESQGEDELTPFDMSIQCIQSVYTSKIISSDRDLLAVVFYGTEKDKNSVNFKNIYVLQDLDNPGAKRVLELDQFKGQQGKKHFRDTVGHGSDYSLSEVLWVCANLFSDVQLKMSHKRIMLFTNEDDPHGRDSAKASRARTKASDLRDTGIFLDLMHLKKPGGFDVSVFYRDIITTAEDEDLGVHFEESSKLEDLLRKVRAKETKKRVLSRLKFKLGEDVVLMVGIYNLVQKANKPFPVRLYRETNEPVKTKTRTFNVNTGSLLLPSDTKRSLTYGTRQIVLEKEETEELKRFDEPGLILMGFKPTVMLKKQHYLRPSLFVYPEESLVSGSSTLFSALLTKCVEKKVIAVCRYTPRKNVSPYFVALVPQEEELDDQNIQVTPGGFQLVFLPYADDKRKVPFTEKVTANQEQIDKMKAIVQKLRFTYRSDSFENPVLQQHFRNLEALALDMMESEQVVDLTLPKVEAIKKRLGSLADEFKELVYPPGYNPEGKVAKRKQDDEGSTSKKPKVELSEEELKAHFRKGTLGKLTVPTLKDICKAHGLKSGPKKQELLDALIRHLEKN

No constants are given. Whether binding was seen depends on the method and setting. Binding seen in cells or lysates may run through a third protein. Some entries that bind do so weakly or less than the wild type. For some of these results: Tags and fused reporters may be left off the sequences shown.

The target of assay [1] is T1, N-terminal GFP-tagged RAG2 C-terminal region (aa351-527) fusion protein (human) (UniProt P55895).
T1 sequence: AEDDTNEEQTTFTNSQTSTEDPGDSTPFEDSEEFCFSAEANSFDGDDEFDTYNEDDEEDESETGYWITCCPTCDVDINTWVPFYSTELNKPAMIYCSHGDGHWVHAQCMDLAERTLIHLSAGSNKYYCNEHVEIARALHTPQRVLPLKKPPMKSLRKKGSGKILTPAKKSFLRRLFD
The experiment in a line: proximity ligation.

Assay [2] deals with T1, N-terminal GFP-tagged RAG2 C-terminal region (aa351-527) fusion protein (human). The experiment in a line: pull-down.
The target of assay [3] is endogenous Ku80 (XRCC5) (mouse (endogenous in v-abl pro-B cells)) (UniProt P27641). Nature of the assay: proximity ligation.

Regarding “endogenous Ku80 (XRCC5) (from UniProt P27641 1-732)”, the binding result in assay [1] and in assay [2] was “binds” in each case.

“endogenous Ku70 (XRCC6) (from UniProt P23475 1-608)”: the binding entry in assay [3] and in assay [2] was “binds” throughout.
